{
  "source": "patent US10604509B2",
  "about": "“Nrf2 regulators” (GlaxoSmithKline Intellectual Property Development Limited, priority 2015, dated 2020)",
  "origin": "cited, not measured here",
  "tested_on": "diabetic patients with diabetic nephropathy/chronic kidney disease (CKD)",
  "settings": "in the clinic; cited from earlier work",
  "note": "At least one structure is not confirmed: it was looked up by name or label, or the drawing left a doubt.",
  "data": [
    {"compound": "COC(=O)[C@]12CCC(C)(C)C[C@H]1[C@H]1C(=O)C=C3[C@@]4(C)C=C(C#N)C(=O)C(C)(C)[C@@H]4CC[C@@]3(C)[C@]1(C)CC2", "note": "[bardoxolone methyl]", "values": [
      {"measurement": "efficacy in diabetic nephropathy/chronic kidney disease (CKD)", "result": "has shown efficacy"}
    ]}
  ]
}
